Values from PubChem BioAssay AID652243 (Drosophila RNAi Screening Center, 2013).
Aim: 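Fly regulators of androgen-dependent reporter output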 (primary screen). Cells: Drosophila S2R+ cells. Knock-down reagent: long dsRNA against Drosophila genes. Timing: 72 h (48 h, then 24 h hormone). Conditions: synthetic androgen R1881 at 10 nM for 24 h. Detection: 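Per-well raw luminescence of the androgen-driven firefly reporter and of the Renilla control, two replicates each, without normalisation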. Reading the numbers: firefly reporter light: higher = more light from androgen-responsive reporter; Renilla control light: higher = more constitutive control signal (cell number, transfection). Call rule: 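Hit when the log firefly-to-Renilla ratio dropped or increased by a fixed fold versus the mean of GFP or LacZ controls across duplicate plates; lowering cut given as 1.5 and as 3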. Calls: active = hit: reporter lowered or raised; inactive = no hit.
The deposit covers about 24,000 reagents; shown is a random part of those with a known target gene and a result. Over the whole deposit, 246 (1%) are marked active. 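Plates not normalised; calls are printed but the firefly/Renilla ratio behind them is not deposited; fold cut for lowering reported inconsistently.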 Raw values are not corrected between plates. Entries without a mark were called inactive. A plus sign joins genes that one reagent is predicted to hit. The record does not give: the amount of reagent.

gene knocked down | dsRNA | firefly reporter light, replicate 1 | firefly reporter light, replicate 2 | Renilla control light, replicate 1 | Renilla control light, replicate 2
CG5103 | DRSC10481 | 2.18e5 | 2.05e5 | 2.16e6 | 2.08e6
CG10973 | DRSC09813 | 1.13e6 | 5.33e5 | 1.38e6 | 1.16e6
Cyt-b5-r | DRSC03308 | 1.27e5 | 1.54e5 | 1.73e6 | 1.88e6
Cpr64Ab | DRSC08461 | 2.67e5 | 2.75e5 | 1.80e6 | 2.02e6
Cpr64Ab | DRSC25195 | 6.45e5 | 6.29e5 | 8.14e5 | 6.85e5
CG34247 | DRSC09933 | 3.80e5 | 2.92e5 | 3.56e6 | 2.78e6
CG15210 | DRSC19656 | 5.10e5 | 4.34e5 | 4.09e6 | 4.62e6
CG15210 | DRSC27768 | 3.01e5 | 2.61e5 | 6.28e5 | 8.88e5
CR42532 | DRSC06713 | 4.65e5 | 3.52e5 | 1.75e6 | 2.35e6

In a second layout: results already given
{"gene knocked down":"CG10973","dsRNA":"DRSC09813","firefly reporter light, replicate 1":1.13e6,"firefly reporter light, replicate 2":5.33e5,"Renilla control light, replicate 1":1.38e6,"Renilla control light, replicate 2":1.16e6}
{"gene knocked down":"Cyt-b5-r","dsRNA":"DRSC03308","firefly reporter light, replicate 1":1.27e5,"firefly reporter light, replicate 2":1.54e5,"Renilla control light, replicate 1":1.73e6,"Renilla control light, replicate 2":1.88e6}

The listing continues.
gene knocked down | dsRNA | firefly reporter light, replicate 1 | firefly reporter light, replicate 2 | Renilla control light, replicate 1 | Renilla control light, replicate 2
CG15386 + CG42371 | DRSC00400 | 1.91e5 | 1.60e5 | 1.13e6 | 8.90e5
CG15386 + CG42371 | DRSC30077 | 6.60e5 | 7.61e5 | 1.34e6 | 1.20e6
CG18233 | DRSC10308 | 1.97e5 | 1.78e5 | 1.92e6 | 1.80e6
CG31997 | DRSC17105 | 1.28e6 | 8.25e5 | 3.40e6 | 1.38e6
RhoBTB | DRSC11877 | 41294 | 53562 | 3.25e5 | 3.71e5
haf | DRSC00381 | 95284 | 84890 | 8.01e5 | 8.80e5
Irbp18 | DRSC10612 | 3.36e5 | 2.99e5 | 3.08e6 | 3.16e6
Gycbeta100B | DRSC14039 | 9.00e5 | 5.66e5 | 1.33e6 | 5.14e5
Gycbeta100B | DRSC14040 | 1.02e6 | 6.28e5 | 9.19e5 | 5.32e5
Gycbeta100B | DRSC16691 | 1.30e5 | 1.57e5 | 1.44e6 | 9.73e5
Gycbeta100B | DRSC28797 | 3.10e5 | 3.63e5 | 1.03e6 | 9.16e5
CG32679 | DRSC17644 | 7.05e5 | 7.93e5 | 1.70e6 | 1.59e6
CG18467 | DRSC06758 | 64889 | 98682 | 1.52e6 | 1.52e6
Atg16 | DRSC15052 | 1.05e5 | 75537 | 6.80e5 | 4.45e5
Atg16 | DRSC15300 | 1.24e5 | 98934 | 1.36e6 | 1.47e6
Atg16 | DRSC15375 | 1.93e5 | 1.96e5 | 1.61e6 | 2.64e6
